The list shows only some results of the screen, not a fair sample: it gathers tests that were run many times, whatever their T/C, doses with no T/C, and many T/C values between a quarter and a half above the control. Other doses and runs of a compound stand elsewhere. T/C is the treated group as % of the vehicle group. Some doses have a count of surviving animals in place of a T/C: the source holds a T/C of zero for them, seemingly a mark for toxic or unscored doses. Some doses without a T/C left all or most animals alive at the check, yet need not have been tolerated: survival well below the control is almost never listed, so the zero probably covers shortened survival too. Counts of survivors are from the toxicity check (mostly the fifth day) where no day follows; animals may have died later. Schedule codes are those of the source, taken here to give the interval after Q, in days (D) or hours (H), and the number of doses after X. For survival time, this PubChem deposit counts one and a half times the control or more as active, and values a quarter to a half above the control carry no call in these data; other NCI protocols may use other cut-offs. Some T/C values carry the count of animals alive at the toxicity check (mostly the fifth day); where none is given, no animal had died by that day. Some doses were run more than once; the results are listed from low to high. Signs of the kind (2×) say how often a value occurs here.
Test system: CD2F1 mice, L1210 leukemia ip, survival T/C
Assay: NCI In Vivo Anticancer Drug Screen. Data for tumor model L1210 Leukemia (intraperitoneal) in CD2F1 (CDF1) mice
Details: higher T/C = longer survival
Procedure: The antitumor activity of compounds was measured in mice bearing transplantable tumors. Survival or tumor size were measured and the results are expressed as the measurement made in the treated group (T) divided by the measurement made in the vehicle treated control group (C). The tumor model used in this assay is L1210 Leukemia (intraperitoneal) in CD2F1 (CDF1) mice

[1] = T/C endpoint: mean survival time, dose: 150.0 mg/kg/injection, schedule: Q01DX001 (ip), vehicle: saline
[2] = T/C endpoint: mean survival time, dose: 300.0 mg/kg/injection, schedule: Q01DX001 (ip), vehicle: saline
[3] = T/C endpoint: mean survival time, dose: 400.0 mg/kg/injection, schedule: Q04DX003 (ip), vehicle: saline with Tween-80

**Q.** What does the source list for Cc1ncc(C[P+](c2ccccc2)(c2ccccc2)c2ccccc2)c(C)c1O?
**A.** survivor count [1]: 3 of 6; survivor count [2]: 0 of 6

**Q.** With N#CC(=C1C=CC(=NO)C=C1)c1ccccc1 as the molecule, how does the survivor count [3] read?
**A.** 5 of 6

**Q.** With Clc1ncnc2nc[nH]c12 as the molecule, how does the T/C (T/C endpoint: mean survival time, dose: 7.5 mg/kg/injection, schedule: Q01DX009 (ip), vehicle: saline) read?
**A.** 94, 98, 100, 106 % of control

**Q.** And the T/C (T/C endpoint: mean survival time, dose: 15.0 mg/kg/injection, schedule: Q01DX009 (ip), vehicle: saline)?
**A.** 95, 100 (2×), 101 % of control

**Q.** What about the T/C (T/C endpoint: mean survival time, dose: 30.0 mg/kg/injection, schedule: Q01DX009 (ip), vehicle: saline) of the same molecule?
**A.** 100, 106, 109, 112 % of control

**Q.** And the T/C (T/C endpoint: mean survival time, dose: 60.0 mg/kg/injection, schedule: Q01DX009 (ip), vehicle: saline)?
**A.** 111, 117, 118, 123 % of control

**Q.** Cc1cc(C)c2ccc(N)nc2n1 was tested. Which survivor count (T/C endpoint: mean survival time, dose: 75.0 mg/kg/injection, schedule: Q01DX001 (ip), vehicle: saline) did it give?
**A.** 0 of 6

**Q.** What about the survivor count [1] of the same molecule?
**A.** 0 of 6

**Q.** What about the survivor count [2] of the same molecule?
**A.** 0 of 6

**Q.** For CC1CN(Cc2ccccc2)C1, which survivor count (T/C endpoint: mean survival time, dose: 100.0 mg/kg/injection, schedule: Q01DX001 (ip), vehicle: acetone) is on record?
**A.** 0 of 6

**Q.** What about the survivor count (T/C endpoint: mean survival time, dose: 200.0 mg/kg/injection, schedule: Q01DX001 (ip), vehicle: acetone) of the same molecule?
**A.** 0 of 6

**Q.** And the survivor count (T/C endpoint: mean survival time, dose: 400.0 mg/kg/injection, schedule: Q01DX001 (ip), vehicle: acetone)?
**A.** 0 of 6

**Q.** With O=C(O)c1ccc(CC23CC4CC(CC(C4)C2)C3)cc1 as the molecule, how does the survivor count (T/C endpoint: mean survival time, dose: 200.0 mg/kg/injection, schedule: Q01DX001 (ip), vehicle: saline with Tween-80) read?
**A.** 6 of 6

**Q.** How did the survivor count (T/C endpoint: mean survival time, dose: 100.0 mg/kg/injection, schedule: Q04DX003 (ip), vehicle: saline with Tween-80) turn out when Nc1cccc2c1C(=O)C=CC2=O was run?
**A.** 0 of 6

**Q.** What about the survivor count (T/C endpoint: mean survival time, dose: 200.0 mg/kg/injection, schedule: Q04DX003 (ip), vehicle: saline with Tween-80) of the same molecule?
**A.** 0 of 6

**Q.** What about the survivor count [3] of the same molecule?
**A.** 0 of 6

**Q.** With CCCCCCCCCCCCCCCC(=O)OCC1OC(n2ccc(N)nc2=O)C(O)C1O (configuration not stated) as the molecule, how does the T/C (T/C endpoint: mean survival time, dose: 6.25 mg/kg/injection, schedule: Q01DX001 (ip), vehicle: saline with Tween-80) read?
**A.** 132 % of control

**Q.** And the T/C (T/C endpoint: mean survival time, dose: 12.5 mg/kg/injection, schedule: Q01DX001 (ip), vehicle: saline with Tween-80)?
**A.** 136 % of control

**Q.** And the T/C (T/C endpoint: mean survival time, dose: 32.0 mg/kg/injection, schedule: Q01DX008 (oral), vehicle: saline)?
**A.** 126 % of control

**Q.** And the T/C (T/C endpoint: mean survival time, dose: 64.0 mg/kg/injection, schedule: Q01DX008 (oral), vehicle: saline)?
**A.** 138 % of control

**Q.** And the T/C (T/C endpoint: mean survival time, dose: 128.0 mg/kg/injection, schedule: Q01DX009 (oral), vehicle: saline)?
**A.** 135 % of control

**Q.** What about the T/C (T/C endpoint: mean survival time, dose: 256.0 mg/kg/injection, schedule: Q01DX009 (oral), vehicle: saline) of the same molecule?
**A.** 145 % of control

**Q.** And the T/C (T/C endpoint: mean survival time, dose: 256.0 mg/kg/injection, schedule: Q04DX003 (oral), vehicle: saline)?
**A.** 129 % of control

**Q.** And the T/C (T/C endpoint: mean survival time, dose: 512.0 mg/kg/injection, schedule: Q04DX003 (oral), vehicle: saline)?
**A.** 128 % of control

**Q.** And the T/C (T/C endpoint: mean survival time, dose: 1024.0 mg/kg/injection, schedule: Q04DX003 (oral), vehicle: saline)?
**A.** 140 % of control

**Q.** And the T/C (T/C endpoint: median survival time, dose: 125.0 mg/kg/injection, schedule: Q01DX001 (ip), vehicle: saline with Tween-80, evaluated on day 30)?
**A.** 348 % of control

**Q.** What about the T/C (T/C endpoint: median survival time, dose: 125.0 mg/kg/injection, schedule: Q01DX001 (ip), vehicle: saline with Tween-80, evaluated on day 45) of the same molecule?
**A.** 548 % of control

**Q.** And the T/C (T/C endpoint: median survival time, dose: 125.0 mg/kg/injection, schedule: Q01DX001 (ip), vehicle: saline with Tween-80, evaluated on day 60)?
**A.** 328 and 421 % of control

**Q.** What about the T/C (T/C endpoint: median survival time, dose: 150.0 mg/kg/injection, schedule: Q01DX001 (ip), vehicle: saline with Tween-80, evaluated on day 30) of the same molecule?
**A.** 348 % of control

**Q.** What about the T/C (T/C endpoint: median survival time, dose: 150.0 mg/kg/injection, schedule: Q01DX001 (ip), vehicle: saline with Tween-80, evaluated on day 45) of the same molecule?
**A.** 548 % of control [9 of 10 alive]

**Q.** And the T/C (T/C endpoint: median survival time, dose: 150.0 mg/kg/injection, schedule: Q01DX001 (ip), vehicle: saline with Tween-80, evaluated on day 60)?
**A.** 337 and 463 % of control [8 of 9 alive]

Reference: PubChem BioAssay AID256 (DTP/NCI, 2004)
